The whole screen tested about 400,000 compounds, of which about 13,000 (3.2%) were called active. The shares of active, inactive and inconclusive entries below differ from those in the screen. The call rests on the fitted dose curve; in most records, active means well fitted cell-killing curve with a large enough effect; inconclusive means small, poorly fitted or top-dose-only effect, or effect the other way; inactive means flat fitted curve, though single readings scatter. Potencies of inconclusive entries are doubtful fits and often do not repeat.
Assay: qHTS assay for MDR1-selective chemotherapeutics: Primary screen using the drug-selected MDR subline cells KB-V1; further: nearly all actives have a fitted effect of over 60% in size
Conditions: KB-V1 MDR cells viability, CellTiter-Glo, 72 h; activity change, negative = cytotoxicity: at 46.1 µM (top of the series)
Outline: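 Following 72 h at 37 degrees C with compound, KB-V1 cell viability was read by CellTiter-Glo luminescence, medium being phenol-red-free DMEM plus 10% FBS; concentration-response parameters came from normalized, curve-fitted qHTS data.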
On the % scale 0 is the no-effect control and ±100 the full control effect; potency means the concentration at half of the fitted maximal effect.

| Structure (SMILES) | activity change, negative = cytotoxicity | Potency |
| --- | --- | --- |
| CC(=O)c1cccc(OC(=O)c2cc(S(=O)(=O)N3CCOCC3)ccc2N2CCCC2)c1 | inactive: -33.4% | – |
| COc1ccc(-c2cc(-c3nc4ccccn4c3NCc3ccccc3)ccc2OC)cc1 | – | inconclusive: 6.51 µM [cytotoxic, partial curve, poor fit] |
| Cc1cc(C)c2nc3nc(C)cc(C)c3c(N)c2c1 | – | active: 18.4 µM |
| N=c1n(CCN2CCCCC2)c2ccccc2n1CC(O)c1ccc(Cl)c(Cl)c1 (stereo not given) | – | active: 20.6 µM |
| CCOn1c(=O)c(-c2cc3ccccc3o2)[n+]([O-])c2ccccc21 | inactive: -6.84% | – |
| COc1ccc([N+](=O)[O-])cc1NC(C)C | – | inconclusive: 0.517 µM [rising, full curve, poor fit] |
| O=C1NC(=S)N/C1=C/C=C/c1ccccc1 | inactive: 20.2% | – |
| CCC(C(=O)NC1CCCC1)N(C(=O)c1snc(C(N)=O)c1N)c1ccc(C)cc1C (stereo not given) | – | inconclusive: 23.1 µM [cytotoxic, partial curve] |
| O=C(CSc1nnc(-c2ccccc2)c(-c2ccccc2)n1)N1CCc2ccccc21 | – | inconclusive: 8.2 µM [cytotoxic, partial curve, poor fit] |
| CCCN(CCC)CC(O)CN(c1cc([N+](=O)[O-])ccc1OC)S(=O)(=O)c1ccccc1 (stereo not given) | – | inconclusive: 16.4 µM [cytotoxic, single point] |
| Cc1cc(F)ccc1C(O)c1ncc(-c2ccccc2F)[nH]1 (stereo not given) | inactive: 1.37% | – |
| O=C(NCc1nnc(SCC(=O)N2CCOCC2)o1)c1ccccc1F | inactive: 12.1% | – |
| COc1cccc(CN2CCN(Cc3cc4ccccc4[nH]3)CC2CCO)c1 (stereo not given) | – | inconclusive: 7.31 µM [cytotoxic, partial curve] |
| CCCCCn1c(N)c(-c2nc3ccccc3s2)c2c([N+](=O)[O-])nn(C)c(=O)c21 | – | inconclusive: 10.3 µM [cytotoxic, partial curve] |
| N=c1sccn1CC(=O)Nc1cc(S(=O)(=O)N2CCCC2)ccc1Cl | inactive: -1.37% | – |
| Cc1ccc(-c2nnc(SCC(=O)CC(=O)Nc3ccccc3)n2C)cc1 | – | inconclusive: 16.4 µM [cytotoxic, single point] |
| CNC(=S)Nc1cccc([N+](=O)[O-])c1 | inactive: 9.03% | – |
| COc1ccc(C(O)c2nc3ccccc3n2C)cc1OC (stereo not given) | inactive: -9.48% | – |
| CCOCCn1c(CN(Cc2ccccc2)Cc2ccccc2)nc2c1c(=O)[nH]c(=O)n2C | – | inconclusive: 29.1 µM [cytotoxic, single point] |
| CCCn1c(=N)c(C(=O)NC2CCCC2)cc2c(=O)n3cc(C)ccc3nc21 | – | inconclusive: 16.4 µM [rising, partial curve, poor fit] |
| O=C(c1ccccc1)c1ccc(N2CCOCC2)c(F)c1 | – | active: 20.6 µM |
| CCCCNC(=O)C[C@@H]1C[C@@]2(C(=O)OC)CCCCC=C2N(CCc2ccc(OC)c(OC)c2)C1=O | – | inconclusive: 4.61 µM [cytotoxic, full curve] |
| COc1ccc(-n2nc(C(=O)Nc3ccc(OC)c(OC)c3)c3c4ccccc4n(C)c3c2=O)cc1 | – | inconclusive: 29.1 µM [cytotoxic, single point] |

| Structure (SMILES) | activity change, negative = cytotoxicity | Potency |
| --- | --- | --- |
| O=C(Nc1ccc(-n2cccn2)cc1)C1CCCCN1Cc1cccc2c1OCO2 (stereo not given) | – | inconclusive: 23.1 µM [cytotoxic, partial curve, poor fit] |
| COc1ccc(CN2C(=O)c3ccccc3C2c2nnnn2C(C)C)cc1 (stereo not given) | – | inconclusive: 20.6 µM [cytotoxic, single point] |
| O/N=C/C1=C(Cl)c2ccccc2CC1 | – | inconclusive: 29.1 µM [cytotoxic, single point] |
| CC(C)=C1C2CCC1C(C(=O)Nc1sc(C)c(-c3ccc(C(C)C)cc3)c1C(N)=O)C2C(=O)O (stereo not given) | – | active: 2.06 µM |
| COc1cccc(-c2cc(NC=O)c3ncc(-c4cc(OC)c(OC)c(OC)c4)n3c2)c1 | – | active: 2.06 µM |
| O=C(COC(=O)CCc1c[nH]c2ccccc12)NCc1ccc(Cl)cc1 | – | inconclusive: 16.4 µM [rising, single point] |
| Clc1ccc(-c2cn3cccnc3n2)cc1 | – | inconclusive: 29.1 µM [cytotoxic, single point] |
| O=C(NCCNC(=O)C(c1ccccc1)c1ccccc1)c1ccco1 | – | inconclusive: 14.6 µM [cytotoxic, partial curve] |
| O=C(CSc1nc(-c2ccco2)cc(C(F)(F)F)n1)NN1CCOCC1 | – | inconclusive: 23.1 µM [rising, single point] |
| N#CC1=C(N)SC(N)=C(C#N)C1C1CC=CCC1 (stereo not given) | inactive: 1.94% | – |
| CN(CC(=O)Nc1ccc2c(c1)CCC2)CC(=O)Nc1ccccc1Br | – | inconclusive: 16.4 µM [cytotoxic, partial curve] |
| COc1ccc(CC(=O)NNC(=O)COc2ccc3ccccc3c2)cc1 | inactive: -10.8% | – |
| O=C(N/N=C/c1ccc2cccc(OCc3ccccc3)c2n1)c1ccc(Cl)cc1 | – | inconclusive: 14.6 µM [cytotoxic, partial curve] |
| COc1ccc(C(=O)C[n+]2cccc3cc(OC)ccc32)cc1 | inactive: 17.1% | – |
| O=C(O)C[C@H]1c2cc(F)ccc2S(=O)(=O)N1C1CCCC1 | – | inconclusive: 8.2 µM [rising, partial curve] |
| CC(C)c1ccc2c(c1)CC[C@H]1[C@](C)(CN)CCC[C@]21C | – | inconclusive: 29.1 µM [cytotoxic, single point] |
| CCc1cc2c(=O)c(-c3cnn(-c4ccccc4)c3)c(C(F)(F)F)oc2c(CN(C)C)c1O | – | active: 1.84 µM |
| CCN(CC)CCNc1ccc2nnc(CCNS(=O)(=O)c3ccc(C)cc3)n2n1 | – | inconclusive: 18.4 µM [cytotoxic, single point] |
| COc1ccccc1CN1C(=O)C(C)ON=C1c1ccccc1F (stereo not given) | – | inconclusive: 20.6 µM [cytotoxic, single point] |
| O=C(c1cc(S(=O)(=O)N2CCOCC2)ccc1Cl)N1CCCCC1CO (stereo not given) | inactive: 3.08% | – |
| COC(=O)C1=C(CS(=O)(=O)c2cc(Cl)ccc2OC)NC(=O)NC1c1ccc(O)c(OC)c1 (stereo not given) | – | inconclusive: 9.2 µM [rising, partial curve, poor fit] |
| Cc1c(C(=O)N2CCc3ccccc3C2)oc2ccc(S(=O)(=O)N3CCCCCC3)cc12 | – | inconclusive: 29.1 µM [cytotoxic, single point] |

For convenience, some entries already given.

| Structure (SMILES) | activity change, negative = cytotoxicity | Potency |
| --- | --- | --- |
| COc1ccc(-c2cc(-c3nc4ccccn4c3NCc3ccccc3)ccc2OC)cc1 | – | inconclusive: 6.51 µM [cytotoxic, partial curve, poor fit] |
| Cc1cc(C)c2nc3nc(C)cc(C)c3c(N)c2c1 | – | active: 18.4 µM |
| N=c1n(CCN2CCCCC2)c2ccccc2n1CC(O)c1ccc(Cl)c(Cl)c1 (stereo not given) | – | active: 20.6 µM |
| CCOn1c(=O)c(-c2cc3ccccc3o2)[n+]([O-])c2ccccc21 | inactive: -6.84% | – |
| COc1ccc([N+](=O)[O-])cc1NC(C)C | – | inconclusive: 0.517 µM [rising, full curve, poor fit] |
| O=C1NC(=S)N/C1=C/C=C/c1ccccc1 | inactive: 20.2% | – |
| CCC(C(=O)NC1CCCC1)N(C(=O)c1snc(C(N)=O)c1N)c1ccc(C)cc1C (stereo not given) | – | inconclusive: 23.1 µM [cytotoxic, partial curve] |
| O=C(CSc1nnc(-c2ccccc2)c(-c2ccccc2)n1)N1CCc2ccccc21 | – | inconclusive: 8.2 µM [cytotoxic, partial curve, poor fit] |
| CCCN(CCC)CC(O)CN(c1cc([N+](=O)[O-])ccc1OC)S(=O)(=O)c1ccccc1 (stereo not given) | – | inconclusive: 16.4 µM [cytotoxic, single point] |
| Cc1cc(F)ccc1C(O)c1ncc(-c2ccccc2F)[nH]1 (stereo not given) | inactive: 1.37% | – |
| O=C(NCc1nnc(SCC(=O)N2CCOCC2)o1)c1ccccc1F | inactive: 12.1% | – |
| COc1cccc(CN2CCN(Cc3cc4ccccc4[nH]3)CC2CCO)c1 (stereo not given) | – | inconclusive: 7.31 µM [cytotoxic, partial curve] |
